Laboratory results from patent publication US20180127513A1.
Results are given in words; binding and its absence hold for the method and conditions named. Some results given as binding are weak or reduced against the parent protein; the word gives no strength.

Amino acid sequences for entries named in this document (tags omitted). A change or cut given only in a name is not applied to a line headed by its entry.
UniProt P21589: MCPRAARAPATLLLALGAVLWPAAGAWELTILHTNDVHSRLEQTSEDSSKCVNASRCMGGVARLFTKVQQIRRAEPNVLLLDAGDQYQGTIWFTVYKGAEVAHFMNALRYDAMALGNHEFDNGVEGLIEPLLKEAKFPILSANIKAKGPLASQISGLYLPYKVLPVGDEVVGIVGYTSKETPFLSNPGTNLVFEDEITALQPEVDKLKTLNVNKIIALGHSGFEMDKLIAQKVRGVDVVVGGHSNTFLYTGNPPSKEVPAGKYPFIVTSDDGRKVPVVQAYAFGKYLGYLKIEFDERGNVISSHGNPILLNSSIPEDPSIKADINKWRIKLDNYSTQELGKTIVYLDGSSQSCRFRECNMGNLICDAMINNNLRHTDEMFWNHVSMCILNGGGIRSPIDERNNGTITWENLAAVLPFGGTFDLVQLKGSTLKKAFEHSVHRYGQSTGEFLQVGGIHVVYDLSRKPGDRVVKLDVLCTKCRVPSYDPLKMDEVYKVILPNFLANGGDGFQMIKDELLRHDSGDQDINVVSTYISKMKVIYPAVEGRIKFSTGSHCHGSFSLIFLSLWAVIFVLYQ

Molecular target: N-hCD73-his (human) (UniProt P21589)
Assay: SPR

binding: binds
B1: 5F8 (antibody, human IgG1, kappa, V domains shown)
VH: EVQLVESGGGLVQPGGSLRLSCAASGFTFSSYWMHWVRQAPGKGLVWVSRIISDGSSTGYADSVKGRFTISRDNAKNTLYLQMNSLRAEDTAVYYCAREFSSGWYFDYWGQGTLVTVSS
VL: AIQLTQSPSSLSASVGDRVTITCRASQGISSALAWYQQKPGKAPKLLIYDASSLESGVPSRFSGSGSGTDFTLTISSLQPEDFATYYCQQFSSYPRTFGQGTKVEIKR
